Reference: paper PMC2621267, “The Influence of Catalysis on Mad2 Activation Dynamics” (PLoS Biology, 2009)
Results are given in words; binding and its absence hold for the method and conditions named.

Chains of the proteins cited; added tags and fusions are not shown. Lines headed by an entry give the natural chain unless they say otherwise; changes in a name come on top.
UniProt Q13257: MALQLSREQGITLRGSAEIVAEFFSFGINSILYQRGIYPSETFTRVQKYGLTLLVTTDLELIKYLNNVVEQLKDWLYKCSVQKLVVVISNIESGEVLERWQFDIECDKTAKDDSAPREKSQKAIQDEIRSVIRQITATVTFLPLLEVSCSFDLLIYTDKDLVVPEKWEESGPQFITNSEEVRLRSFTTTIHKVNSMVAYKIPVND

Tests used:
[1] = target: T1, Alexa Fluor 488-labelled Mad2^F141A (UniProt Q13257 1-205, F141A, Alexa 488 C5 maleimide, covalent label (residue not stated)); test: SEC; Superdex-75 10/30 column; PBS; both purified
T1 construct: Mad2, full length, Phe141 replaced by Ala; monomeric O-Mad2 after labelling; Labelled form of m2; also called Alexa-Mad2^F141A; Alexa-488-Mad2^F141A; source: purified as described [14], labelled with Alexa 488 C5 maleimide, separated from free dye on Superdex-75

Full-length Mad2^F141A = target: T2, Full-length Mad2^F141A (UniProt Q13257 1-205, F141A); test: SEC; Superdex-75 10/30 column; PBS; both purified
T2 construct: Mad2, full length, Phe141 replaced by Ala; purified as a monomer in the open (O-Mad2) conformation; Unlabelled form; source: purified as described [14], final size-exclusion chromatography on Superdex-75 in PBS

| binding [1] | binding (Full-length Mad2^F141A) | Substance |
| --- | --- | --- |
| no binding | – | Alexa Fluor 488-labelled Mad2^F141A (from UniProt Q13257 1-205) |
| – | no binding | Full-length Mad2^F141A (from UniProt Q13257 1-205) |
